Values from PubChem BioAssay AID1224828 (NIAID, 2016).
Aim: 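Knock-downs that increase or decrease LPS-induced p65 nuclear translocation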 (primary screen). System: mouse RAW264.7 G9 macrophage reporter cells (GFP-p65, Tnf promoter-mCherry). Reagent: siRNA pool against mouse genes, 100 nM. Timing: 2 days siRNA transfection, then 40 min LPS before fixation. Conditions: LPS (Salmonella minnesota R595) at 10 ng/ml. Read-out: 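Microscopy ratio of nuclear to perinuclear-ring GFP-p65 signal, scaled to the plate median; gene score is the average of two replicate robust z-scores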. Direction: p65 translocation robust z-score: higher = more nuclear NF-kappaB p65 after LPS than the plate median; nuclear/cytoplasmic p65 ratio: higher = more nuclear NF-kappaB p65. Rule for the call: 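Active if robust z is above 3.3 (negative regulators) or below -1.56, the Tlr4 control median (positive regulators); activity score 50 or more; control wells not called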. Meaning of the calls: active = hit (p65 shift raised or lowered); inactive = no clear change.
Here is a random part of about 17,000 deposited reagents. 762 of them (4.5%) count as active. 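Active calls include both raised and lowered p65 entry, mostly lowered; wells with fewer than 50 cells lack a z-score.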 Raw values vary from plate to plate and are shown uncorrected.

| gene symbol | PubChem SID | p65 translocation robust z-score | nuclear/cytoplasmic p65 ratio, rep 1 | nuclear/cytoplasmic p65 ratio, rep 2 | low cell count flag | call |
| --- | --- | --- | --- | --- | --- | --- |
| Max (Max protein) | SID315467843 | 0.33 | 1.54 | 1.34 | enough cells to score | inactive |
| Cdh26 (cadherin-like 26) | SID315481786 | 2.51 | 2.1 | 1.83 | enough cells to score | inactive |
| Dcn (decorin) | SID315466278 | 0.18 | 1.44 | 1.43 | enough cells to score | inactive |
| Vegfc (vascular endothelial growth factor C) | SID315469995 | 0.04 | 1.47 | 1.55 | enough cells to score | inactive |
| Crygn (crystallin, gamma N) | SID315477856 | 0.6 | 1.66 | 1.89 | enough cells to score | inactive |
| Skint2 (selection and upkeep of intraepithelial T cells 2) | SID315481558 | 1 | 1.53 | 1.65 | enough cells to score | inactive |
| Dgkk (diacylglycerol kinase kappa) | SID315481637 | – | 1.39 | 1.53 | fewer than 50 cells per well; well left out of scoring | inactive |
| Ivns1abp (influenza virus NS1A binding protein) | SID315477092 | -1.09 | 1.27 | 1.29 | enough cells to score | inactive |
| Kcnj10 | SID315467577 | – | 1.27 | 1.2 | fewer than 50 cells per well; well left out of scoring | inactive |
| Golga1 (golgin A1) | SID315475407 | 0.05 | 1.59 | 1.61 | enough cells to score | inactive |
| Ikzf3 (IKAROS family zinc finger 3) | SID315470156 | 0.01 | 1.54 | 1.46 | enough cells to score | inactive |
| Stxbp3 (syntaxin binding protein 3) | SID315469522 | 0.82 | 1.53 | 1.32 | enough cells to score | inactive |
| Cacng1 (calcium channel, voltage-dependent, gamma subunit 1) | SID315465719 | 0.74 | 1.7 | 1.91 | enough cells to score | inactive |
| Hspg2 (perlecan (heparan sulfate proteoglycan 2)) | SID315467333 | -0.08 | 1.57 | 1.39 | enough cells to score | inactive |
| Blcap (bladder cancer associated protein) | SID315471094 | 0.34 | 1.74 | 1.6 | enough cells to score | inactive |
| Or4k36 (olfactory receptor family 4 subfamily K member 36) | SID315480534 | 0.54 | 1.63 | 1.55 | enough cells to score | inactive |
| Il1bos (interleukin 1 beta, opposite strand) | SID315481533 | -0.25 | 1.42 | 1.48 | enough cells to score | inactive |
| Ndufb7 (NADH:ubiquinone oxidoreductase subunit B7) | SID315472714 | -1.32 | 1.61 | 1.36 | enough cells to score | inactive |
| Rpa1 (replication protein A1) | SID315473487 | 2.65 | 1.75 | 1.53 | enough cells to score | inactive |
| Pank4 (pantothenate kinase 4) | SID315480870 | -1.13 | 1.37 | 1.23 | enough cells to score | inactive |
| Parn (poly(A)-specific ribonuclease (deadenylation nuclease)) | SID315474848 | -1.09 | 1.26 | 1.15 | enough cells to score | inactive |
| Prr11 (proline rich 11) | SID315480939 | 0 | 1.57 | 1.86 | enough cells to score | inactive |
| Gk5 (glycerol kinase 5) | SID315479266 | – | 1.04 | 0 | fewer than 50 cells per well; well left out of scoring | inactive |
| C630004L07Rik (RIKEN cDNA C630004L07 gene) | SID315481563 | 2.22 | 1.73 | 1.83 | enough cells to score | inactive |
| Abcb9 (ATP-binding cassette, sub-family B member 9) | SID315471460 | -0.66 | 1.57 | 1.51 | enough cells to score | inactive |
| Psma7 (proteasome subunit alpha 7) | SID315470418 | – | 1.22 | 1.04 | fewer than 50 cells per well; well left out of scoring | inactive |
| Mogat1 (monoacylglycerol O-acyltransferase 1) | SID315473521 | 1.49 | 2.02 | 1.82 | enough cells to score | inactive |
| Tfap2a (transcription factor AP-2, alpha) | SID315469619 | 0.12 | 1.54 | 1.53 | enough cells to score | inactive |
| Slc45a2 | SID315469962 | -0.03 | 1.43 | 1.34 | enough cells to score | inactive |
| Clec1b (C-type lectin domain family 1, member b) | SID315471675 | -1.19 | 1.53 | 1.23 | enough cells to score | inactive |
| Smad1 (SMAD family member 1) | SID315467799 | -2.29 | 1.28 | 1.16 | enough cells to score | active |
| Itih1 (inter-alpha trypsin inhibitor, heavy chain 1) | SID315467526 | -0.87 | 1.42 | 1.28 | enough cells to score | inactive |
| Or5h17 (olfactory receptor family 5 subfamily H member 17) | SID315480155 | 0.49 | 1.68 | 1.44 | enough cells to score | inactive |
| Zfp110 (zinc finger protein 110) | SID315472137 | 1.43 | 1.1 | 1.41 | enough cells to score | inactive |
| Dhfr (dihydrofolate reductase) | SID315466322 | -0.27 | 1.54 | 1.26 | enough cells to score | inactive |
| Rmdn2 (regulator of microtubule dynamics 2) | SID315481770 | -1.07 | 1.33 | 1.47 | enough cells to score | inactive |
| Usp49 (ubiquitin specific peptidase 49) | SID315478381 | -1.36 | 1.28 | 1.34 | enough cells to score | inactive |
| Mrps28 (mitochondrial ribosomal protein S28) | SID315472303 | 0.77 | 1.88 | 1.73 | enough cells to score | inactive |
| Gnl3 (guanine nucleotide binding protein nucleolar 3) | SID315470758 | 1.25 | 1.87 | 1.89 | enough cells to score | inactive |
| Gm5148 (predicted gene 5148) | SID315481788 | -0.19 | 1.67 | 1.53 | enough cells to score | inactive |

Active calls, of those listed so far:
| gene symbol | PubChem SID | p65 translocation robust z-score | nuclear/cytoplasmic p65 ratio, rep 1 | nuclear/cytoplasmic p65 ratio, rep 2 | low cell count flag | call |
| --- | --- | --- | --- | --- | --- | --- |
| Smad1 (SMAD family member 1) | SID315467799 | -2.29 | 1.28 | 1.16 | enough cells to score | active |
